# PubChem BioAssay AID445 (National Center for Advancing Translational Sciences (NCATS), 2006)
# The other results are listed elsewhere or left out. These are further read-outs of the screen, such as a control signal, another cell line or another target. No call is given for them. The list favours compounds with an active or inconclusive main result. Words in brackets tell the shape of the fitted curve; partial curves, single points and poor fits give uncertain potencies.
# Experiment: IkB Signaling
# Conditions: ABC-DLBCL IkBa-CBG/CBR dual luciferase ratio (green luciferase fused to IkBa over red control in OCI-Ly3 lymphoma cells), 4 h
# Excerpt: NIH Molecular Libraries Screening Centers Network [MLSCN]
# NIH Chemical Genomics Center [NCGC]
# Nuclear factor kappa-B (NF-kappa-B) plays an important role in normal B cell development and survival. Diffuse large B cell lymphoma (DLBCL) is the most commonly observed type of non-Hodgkin's lymphoma. Gene expression analysis has identified an activated B cell-like subtype of DLBCL (ABC-DLBCL) which expresses known NF-kappa-B target genes. […] However, targets upstream of IKK have been largely unexplored and so nodes upstream of IKK in the NF-kappa-B pathway remain untested due to the lack of chemical probes.
# A cell-sensor assay for I-kappa-B-alpha stabilization was developed with NIH investigator Dr. R. Eric Davis in Dr. Louis M. Staudt's laboratory. The assay uses green (CBG68) and red (CBR) emitting beetle luciferases [Chroma-Glo(TM) developed by Promega Corp.] where the green luciferase is fused to I-kappa-B-alpha and the red luciferase is present in its native state. Both luciferase genes are stably present in the OCI-Ly3 human ABC DLBCL cell line, but their expression is under the control of tetracycline-inducible promoters. Following the addition of doxycycline to induce expression of the luciferases, the green luminescence in control cultures rises only slowly because the CBG fusion partner I-kappa-B-alpha is targeted by IKK activity for rapid degradation. In contrast, green luminescence rises rapidly in the presence of proteasome inhibitors or IKK inhibitors. The rise in red luminescence of CBR is not affected by proteasome or IKK inhibitors, and serves as normalization for cell number and nonspecific effects. Compounds were screened as a concentration-titration series that ranged from 57 uM to 0.7 nM.
# NCGC Assay Protocol Summary:
# Cells were seeded in 1536-well plates at 5000 cells/3ul in IMDM medium containing 0.5% FBS, w/o phenol red, L-glutamine, 25 mM HEPES, 3 mg/ml sodium bicarbonate. After centrifugation for 1 min. at 1000 rpm, 23 nl of compounds or DMSO were delivered to each well using a pin tool. Then 1ul 80ng/ml doxycycline was dispensed into white solid 1536-well plates and the plates were incubated at 37C/5% C02 in a cell incubator for 4 hrs. Then 4 ul Chroma-Glo luminescent substrate mix (Promega) was added to each well. The plate was incubated at R.T. for 10-15 min. The plates were measured on a ViewLux plate reader for green luminescence (540/20 nm filter) and red luminescence (618/8 nm filter). The green and red luminescent signals were corrected for red and green luminescence filter overlap using previously determined filter calibration constants (determined using the procedure outlined in the Promega Technical Manual). The %Activity was determined from the ratio of corrected green/red luminescent values. Green luminescent and ratio %Activity was determined by normalizing to the difference in signal between basal cells (0% Activity) and cells incubated with 10 uM of the proteasome inhibitor MG-132 (100% Activity). Red luminescent %Activity was normalized to the difference between red luminesence in basal cells (0%Activity) and zero luminescence (-100% Activity).
# Concentration-response curves were fitted to the signals arising from the green luminescence (I-kappa-B-alpha-luciferase fusion; IkB-luc) and the red luminescence (unfused luciferase; luc) as well as the calculated ratio. The concentration-effect curves were then classified based on curve quality (r2), response magnitude and degree of measured activity. Compounds were then categorized based on their concentration-response curves for all three datasets (Ikb-luc, luc and ratio).
# Keywords: IKK, I-kappa-B, IkB, IkBa, cytotoxicity, luminescence, MLSMR, MLSCN, NIH Roadmap, qHTS, NCGC
# [1] = measured here: control luc red channel unless noted
smiles,measurement,setting,value
Cc1cccc(N2CCN(C(=O)Nc3ccc(F)cc3)CC2C)c1 (centres undefined),AC50,[1],"31.6 µM [falling, single point]"
Cc1ccccc1NC(=O)Nc1nnc(N(C)Cc2ccccc2)s1,AC50,[1],"39.8 µM [falling, single point]"
O=c1[nH]c2c(s1)C(c1ccccc1)C1C3CCC(C3)C1S2 (centres undefined),AC50,[1],"25.1 µM [falling, partial curve]"
Cc1ccc(N2CCN(C(=O)c3nn(C)c4c3CS(=O)(=O)c3ccccc3-4)CC2C)cc1 (centres undefined),AC50,[1],"12.6 µM [falling, partial curve]"
O=C(c1cnn(-c2nc3ccccc3s2)c1)c1ccccc1O,AC50,[1],"5.01 µM [falling, partial curve]"
COc1ccc(-n2cc3c(c2-c2cccc(Br)c2)c(=O)n(C)c(=O)n3C)cc1OC,AC50,[1],"25.1 µM [falling, single point]"
COc1cccc(NC(=O)Cn2c(=O)n(Cc3ccccc3)c(=O)c3c4c(sc32)CN(C(C)=O)CC4)c1,AC50,[1],"39.8 µM [falling, single point]"
CCCCc1ccc(NC(=O)Cn2cnc3c2c(=O)n(C)c(=O)n3C)cc1,AC50,[1],"10 µM [falling, partial curve]"
Cc1cc(C)cc(C(=O)Nc2ccc(-c3cn4cccnc4n3)cc2)c1,AC50,[1],"20 µM [rising, partial curve]"
CC(=O)c1ccc(NC(=O)c2cc3sccc3n2Cc2ccc(Cl)cc2)cc1,AC50,[1],"25.1 µM [falling, partial curve]"
Cc1ccc(N(CC(=O)NCCSc2ccccc2)S(=O)(=O)c2ccc(F)cc2)cc1,AC50,[1],"15.8 µM [falling, partial curve]"
O=C(COc1ccc(Cl)cc1)NCC(c1ccco1)S(=O)(=O)c1ccc(F)cc1 (centres undefined),AC50,[1],"5.01 µM [falling, full curve]"
COc1ccc(CNC(=O)c2cc3cccc4c3n2CC(C)S4)cc1OC (centres undefined),AC50,[1],"31.6 µM [falling, single point]"
Cc1ccc(CNS(=O)(=O)c2ccc3[nH]c4c(c3c2)CCCCC4)cc1,AC50,[1],"39.8 µM [falling, partial curve, poor fit]"
Cc1ccc(C)n1-n1c(C)nc2sc(-c3ccccc3)cc2c1=O,AC50,[1],"10 µM [falling, partial curve]"
COCCCn1c(SCC(=O)Nc2ccc(F)cc2)nc2c(sc3ccccc32)c1=O,AC50,[1],"3.16 µM [rising, partial curve, poor fit]"
Cc1cccc(NC(=O)C2CCCN(S(=O)(=O)c3ccc4c(c3)CCCC(=O)N4)C2)c1 (centres undefined),AC50,[1],"25.1 µM [falling, partial curve]"
COc1ccc(Cl)cc1NC(=O)Cn1nc(C(F)(F)F)c2c1CCCC2,AC50,[1],"25.1 µM [falling, partial curve]"
CC(=O)Nc1c(C)nn(-c2ccccc2)c1N1CCC(C(=O)Nc2ccccc2C(F)(F)F)CC1,AC50,[1],"5.01 µM [rising, full curve, poor fit]"
CC(C)c1ccc2c(c1)c(SC(C)(C)C)c(CC(C)(C)C(=O)O)n2Cc1ccc(Cl)cc1,AC50,[1],"6.31 µM [falling, partial curve]"
Cc1cc(C)c(NC(=O)CSC2=Nc3ccccc3C3=NC(CC(=O)NCc4cccs4)C(=O)N23)c(C)c1 (centres undefined),AC50,[1],"15.8 µM [falling, partial curve]"
COc1ccc(C)cc1-n1nnc(S(=O)(=O)c2ccc(C)cc2)c1C,AC50,[1],"25.1 µM [falling, partial curve, poor fit]"
COc1ccc(CNc2oc(/C=C/c3cc(OC)c(OC)c(OC)c3)nc2C#N)cc1,AC50,[1],"12.6 µM [falling, partial curve]"
Cc1nn(-c2ccccc2)c2[nH]c(=O)c(CNc3ccc4c(c3)OCCO4)cc12,AC50,[1],"39.8 µM [falling, single point]"
Cc1cccn2c(=O)c(C(=O)NC(C)c3ccccc3)c(O)nc12 (centres undefined),AC50,[1],"15.8 µM [falling, partial curve]"
Cc1sc2ncnc(-n3cnc4ccccc43)c2c1C,AC50,[1],"31.6 µM [falling, partial curve]"
CCOC(=O)c1cc(-c2ccccc2)n(CC(=O)Nc2ccccc2OCC)c1C,AC50,[1],"3.98 µM [rising, partial curve]"
Fc1ccc(-c2csc(=Nc3cccc(C(F)(F)F)c3)n2Cc2ccc3c(c2)OCO3)cc1,AC50,[1],"5.01 µM [falling, partial curve, poor fit]"
COc1ccc(-c2nc(CCNC(=O)c3ccccc3)cs2)cc1OC,AC50,[1],"1.58 µM [rising, full curve]"
Cc1cccc(C)c1NC(=O)CCCn1c(=O)c2cccn2c2ccccc21,AC50,[1],"39.8 µM [falling, single point]"
CCOC(=O)c1c(S(=O)(=O)NCC(=O)Nc2ccc(C(C)=O)cc2)c(C)n(C)c1C,AC50,[1],"1.26 µM [rising, full curve]"
Cc1ccc(Cl)cc1-n1ncc2c(Nc3ccc4c(c3)OCCO4)ncnc21,AC50,[1],"39.8 µM [falling, single point]"
CCc1ccc(NC(=O)c2ccc(Cn3nc(N4CCN(c5ccccc5)CC4)ccc3=O)o2)cc1,AC50,[1],"39.8 µM [falling, single point]"
O=C(c1ccc2c(c1)N(Cc1c(F)cccc1Cl)C(=O)c1ccccc1S2)N1CCCC1,AC50,[1],"20 µM [falling, partial curve]"
Cc1ccnc(Nc2nc3ccccc3o2)n1,AC50,[1],"15.8 µM [falling, partial curve]"
CC(=O)N1CCCC1c1nc2ccccc2n1Cc1ccc(F)cc1 (centres undefined),AC50,[1],"15.8 µM [falling, single point]"
CCC(C)c1ccccc1OCC(=O)Nc1ccc(S(=O)(=O)Nc2cc(C)on2)cc1 (centres undefined),AC50,[1],"39.8 µM [falling, single point]"
Cc1nn(-c2nc3ccccc3s2)c(C)c1Oc1ccccc1O,AC50,[1],"20 µM [falling, partial curve]"
O=C(Nc1cc(C(F)(F)F)ccc1N1CCOCC1)C1Cc2ccccc2CN1C(=O)c1ccco1 (centres undefined),AC50,[1],"20 µM [falling, partial curve]"
COc1cc(NS(=O)(=O)c2ccc(Br)cc2)c(OC)cc1NC(=O)c1ccco1,AC50,[1],"31.6 µM [falling, single point]"
Cc1ccc(NC(=O)Cn2c(=O)n(CCC(C)C)c(=O)c3cccnc32)cc1C,AC50,[1],"0.0398 µM [falling, full curve, poor fit]"
CCC(C(=O)NCCC(C)C)N(C(=O)Cn1nnc(-c2ccc(C)cc2)n1)c1cccc(O)c1 (centres undefined),AC50,[1],"15.8 µM [falling, partial curve]"
COc1ccc(Cl)cc1NC(=O)Cn1c(=O)n(Cc2ccc(F)cc2)c(=O)c2cccnc21,AC50,[1],"20 µM [falling, partial curve]"
CC1CN(C(=O)N2CCC(C(=O)NCc3ccccc3F)CC2)c2cc(Cl)ccc2O1 (centres undefined),AC50,[1],"25.1 µM [falling, partial curve]"
COc1ccccc1N1CCN(C(=O)Cn2c(=O)nc(-c3ccccc3)c3ccccc32)CC1,AC50,[1],"25.1 µM [falling, single point]"
COc1cc2c(cc1OC)C(c1ccccc1)N(C(=O)c1ccco1)CC2 (centres undefined),AC50,[1],"1 µM [rising, full curve, poor fit]"
O=C(O)c1cccc(OCc2ccccc2Cl)c1,AC50,[1],"10 µM [falling, partial curve]"
O=C(CCC1COc2ccccc2O1)Nc1ccc(Cl)cn1 (centres undefined),AC50,[1],"7.94 µM [falling, full curve]"
Oc1ccccc1-c1nc(NCC2CCCO2)c2ccccc2n1 (centres undefined),AC50,[1],"12.6 µM [falling, partial curve]"
CCOC(=O)c1cccc(NC(=O)c2cc(C)nc3c2c(C)nn3-c2ccc(C)cc2)c1,AC50,[1],"12.6 µM [falling, partial curve]"
COc1ccc(-c2onc(C)c2-c2ccc(C(=O)OC(C)C)o2)c(O)c1,AC50,[1],"31.6 µM [falling, single point]"
Clc1ccc(NCc2nncn2-c2ccccc2)cc1,AC50,[1],"20 µM [falling, partial curve]"
CCc1ccccc1S(=O)(=O)Cc1ccc(C(=O)N2CCN(c3ccccc3OC)CC2)o1,AC50,[1],"12.6 µM [falling, partial curve]"
Cc1cc(C)cc(NC(=O)C(=O)NCC(c2cccnc2)N2CCOCC2)c1 (centres undefined),AC50,[1],"25.1 µM [falling, single point]"
COc1cccc(NC(=O)N2CCN(c3cccc(C)c3C)CC2)c1,AC50,[1],"25.1 µM [falling, partial curve]"
CN1C(=O)c2ccccc2Sc2ccc(NC(=O)N3CCN(c4ccc(F)cc4)CC3)cc21,AC50,[1],"10 µM [falling, partial curve]"
COc1ccc(-c2nc(S(=O)(=O)c3ccccc3)c(N3CCC(C)CC3)o2)cc1,AC50,[1],"7.94 µM [rising, single point]"
O=C(CN1CCN(c2ccccn2)CC1)N(c1ccccc1)c1ccc2ccccc2c1,AC50,[1],"39.8 µM [falling, single point]"
CCOc1ccc(CNC(=O)c2cc3cc(S(=O)(=O)N4CCCCC4)ccc3n2C)cc1,AC50,[1],"0.251 µM [falling, full curve]"
Oc1ccc(NCc2ccccc2OCc2ccccc2)cc1,AC50,measured here: IkB-luc green channel,"25.1 µM [rising, single point]"
same,AC50,measured here: control luc red channel,"25.1 µM [falling, partial curve]"
COc1ccc(C(=O)NCCc2csc(-c3ccc(Cl)cc3)n2)c(OC)c1,AC50,[1],"10 µM [falling, partial curve]"
CSc1ccc(CCNC(=O)CN2C(=O)COc3ccc(S(=O)(=O)N4CCCCCC4)cc32)cc1,AC50,[1],"31.6 µM [falling, single point]"
Cc1cnc(NC(=O)CSc2ncc(-c3ccccc3)n2Cc2ccco2)s1,AC50,[1],"12.6 µM [falling, partial curve]"

# Reprinted from above (3 entries):
smiles,measurement,setting,value
CC(=O)c1ccc(NC(=O)c2cc3sccc3n2Cc2ccc(Cl)cc2)cc1,AC50,[1],"25.1 µM [falling, partial curve]"
Cc1ccc(N(CC(=O)NCCSc2ccccc2)S(=O)(=O)c2ccc(F)cc2)cc1,AC50,[1],"15.8 µM [falling, partial curve]"
O=C(COc1ccc(Cl)cc1)NCC(c1ccco1)S(=O)(=O)c1ccc(F)cc1 (centres undefined),AC50,[1],"5.01 µM [falling, full curve]"
